Our source for the binding values is PMC9974451.

These are yes or no findings as the source states them, for the method shown. A result given as binding can be weak or reduced; the word gives no strength. Tags and fused reporters may be left off the sequences shown.

Assay [1] addresses His-importin 7 (Xenopus laevis) (Xenopus laevis). The experiment in a line: SEC; His-importin β : His-importin 7 : His-NOSIP at 1:1:3 in TPB; Superdex S200 increase 10/300 GL; fractions by SDS-PAGE, Coomassie; both purified. In general terms: In gel filtration, larger molecules generally elute earlier.
Assay [2] shares this target. Kind of assay: SEC; His-NOSIP preincubated with one His-tagged NTR at 1:1 in TPB, 1-2 h, 4 °C; Superdex S200 increase 10/300 GL; fractions by SDS-PAGE, Coomassie; both purified.

B1: His-NOSIP (protein, UniProt Q9Y314 1-301)
chain: MTRHGKNCTAGAVYTYHEKKKDTAASGYGTQNIRLSRDAVKDFDCCCLSLQPCHDPVVTPDGYLYEREAILEYILHQKKEIARQMKAYEKQRGTRREEQKELQRAASQDHVRGFLEKESAIVSRPLNPFTAKALSGTSPDDVQPGPSVGPPSKDKDKVLPSFWIPSLTPEAKATKLEKPSRTVTCPMSGKPLRMSDLTPVHFTPLDSSVDRVGLITRSERYVCAVTRDSLSNATPCAVLRPSGAVVTLECVEKLIRKDMVDPVTGDKLTDRDIIVLQRGGTGFAGSGVKLQAEKSRPVMQA
On to B1, for which the binding entry in assay [1] and in assay [2] was “binds” throughout.
